For some of these results: The exact form of at least one protein or probe is not confirmed. For some of these results: Negatives hold for the conditions tested.
Tests used:
[1] = target: HuR (ELAV, ELAVL1) (Homo sapiens) (UniProt Q15717); assay: EMSA; conditions: purified recombinant protein, protein details: N-terminal GST (pGEX-5X-1), E. coli BL21, label: 32P-UTP
GST = GST (UniProt P08515); assay: EMSA; conditions: GST control; purified recombinant protein; protein details: GST alone from pGEX-5X-1 (Amersham-Pharmacia); label: 32P-UTP
hnRNP A1 M9 domain = hnRNP A1 M9 domain (UniProt P09651); assay: EMSA; conditions: specificity control; purified recombinant protein; protein details: GST fusion; label: 32P-UTP
L5 = L5 (UniProt P46777); assay: EMSA; conditions: specificity control; purified recombinant protein; protein details: GST fusion; label: 32P-UTP
[2] = target: HuR (ELAV, ELAVL1) (Homo sapiens) (UniProt Q15717); assay: activity in cells; conditions: CAT reporter in COS cells with HuR co-transfection; protein in cells; protein details: expressed from pcDNA3-ELAV in COS cells; variant of CD83 coding RNA nt1-618

“AGCUGCAACUCGGGGACAUACAGGUGCACUCUGCAGGACCCGGAUGGGCAGAGAAACCUAAGUGGCAAGGUGAUCUUGAGAGUGACAGGAUGCCCUGCACAGCGUAAAGAAGAGACUUUUAAGAAAUACAGAGCGGAGAUUGUCCUGCUGCUGGCUCUGGUUAUUUUCUACUUAACACUCAUCAUUUUCACUUGUAAGUUUGCACGGCUACAGAGUAUCUUCCCAGAUUUUUCUAAAGCUGGCAUGGAACGAGCUUUUCUCCCAGUUACCUCCCCAAAUAAGCAUUUAGGGCUAGUGACUCCUCACAAGACAGAACUGGUAUGA [CD83 RNA nt295-618]”: binds ([1]; binding region stated as nt415-618, variant of CD83 coding RNA nt1-618).
“AUGUCGCGCGGCCUCCAGCUUCUGCUCCUGAGCUGCGCCUACAGCCUGGCUCCCGCGACGCCGGAGGUGAAGGUGGCUUGCUCCGAAGAUGUGGACUUGCCCUGCACCGCCCCCUGGGAUCCGCAGGUUCCCUACACGGUCUCCUGGGUCAAGUUAUUGGAGGGUGGUGAAGAGAGGAUGGAGACACCCCAGGAAGACCACCUCAGGGGACAGCACUAUCAUCAGAAGGGGCAAAAUGGUUCUUUCGACGCCCCCAAUGAAAGGCCCUAUUCCCUGAAGAUCCGAAACACUACCAGCUGCAACUCGGGGACAUACAGGUGCACUCUGCAGGACCCGGAUGGGCAGAGAAACCUAAGUGGCAAGGUGAUCUUGAGAGUGACAGGAUGCCCUGCACAGCGUAAAGAAGAGACUUUUAAGAAAUACAGAGCGGAGAUUGUCCUGCUGCUGGCUCUGGUUAUUUUCUACUUAACACUCAUCAUUUUCACUUGUAAGUUUGCACGGCUACAGAGUAUCUUCCCAGAUUUUUCUAAAGCUGGCAUGGAACGAGCUUUUCUCCCAGUUACCUCCCCAAAUAAGCAUUUAGGGCUAGUGACUCCUCACAAGACAGAACUGGUAUGA [CD83 coding RNA nt1-618]”: no binding (GST); binds [1]; no binding (hnRNP A1 M9 domain). “AUGUCGCGCGGCCUCCAGCUUCUGCUCCUGAGCUGCGCCUACAGCCUGGCUCCCGCGACGCCGGAGGUGAAGGUGGCUUGCUCCGAAGAUGUGGACUUGCCCUGCACCGCCCCCUGGGAUCCGCAGGUUCCCUACACGGUCUCCUGGGUCAAGUUAUUGGAGGGUGGUGAAGAGAGGAUGGAGACACCCCAGGAAGACCACCUCAGGGGACAGCACUAUCAUCAGAAGGGGCAAAAUGGUUCUUUCGACGCCCCCAAUGAAAGGCCCUAUUCCCUGAAGAUCCGAAACACUACCAGCUGCAACUCGGGGACAUACAGGUGCACUCUGCAGGACCCGGAUGGGCAGAGAAACCUAAGUGGCAAGGUGAUCUUGAGAGUGACAGGAUGCCCUGCACAGCGUAAAGAAGAGACUUUUAAGAAAUACAGAGCGGAGAUUGUCCUGCUGCUGGCUCUGGUUAUUUUCUACUUAACACUCAUCAUUUUCACUUGUAAGUUUGCACGGCUACAGAGUAUCUUCCCAGAUUUUUCUAAAGCUGGCAUGGAACGAGCUUUUCUCCCAGUUACCUCCCCAAAUAAGCAUUUAGGGCUAGUGACUCCUCACAAGACAGAACUGGUAUGA [CD83 coding RNA nt1-618]”: no binding (L5).
“UUAACACUCAUCAUUUUCACUUGUAAGUUUGCACGGCUACAGAGUAUCUUCCCAGAUUUUUCUAAAGCUGGCAUGGAACGAGCUUUUCUCCCAGUUACCUCCCCAAAUAAGCAUUUAGGGCUAGUGACUCCUCACAAGACAGAACUGGUA [CD83 RNA nt466-615 (stem-loop-2)]” showed a functional effect (fold increase) [2] of 2.
With “UUUAAGAAAUACAGAGCGGAGAUUGUCCUGCUGCUGGCUCUGGUUAUUUUCUACUUAACACUCAUCAUUUUCACUUGUAAGUUUGCACGGCUACAGAGUAUCUUCCCAGAUUUUUCUAAAGCUGGCAUGGAACGAGCUUUUCUCCCAGUUACCUCCCCAAAUAAGCAUUUAGGGCUAGUGACUCCUCACAAGACAGAACUGGUA [CD83 nt412-615 in CAT reporter 3'UTR]” the functional effect (fold increase) [2] was 2.

— patent US20020165186
